# Results are given in words; binding and its absence hold for the method and conditions named. Some entries that bind do so weakly or less than the wild type.
# T1: P40 biotin peptide (MS1891.2) (human)
# T1 sequence (peptide, C-terminal amide (-NH2); biotin (position not stated)): MLYLENNAQTQFSEPQC
# B1: recombinant rabbit monoclonal anti-human p40 antibody clone 15F11 (antibody, V domains shown)
# VH: QSVEESGGRLVKPDESLTLTCTVSGFSLSSYGVTWVRQAPGKGLEWIGYISHITTTYYASWAKGRFTISKTSPTTVDLKMTSLTTEDTATYFCCRGQYGSGIIYALWGPGTLVTISS
# VL: AQVLTQTPSPVSAAVGGTVTINCQASQSVYNNKNLAWYQQKPGQPPKLLIYYASTLASGVPSRFSGSGSGTQFTLTISGVQCDDAATYYCHGEFSCDSGDCSAFGGGTEVVVK
# Assays:
# [1] = molecular target: T1, P40 biotin peptide (MS1891.2) (human); test: ELISA on P40 biotin peptide MS1891.2
# [2] = molecular target: T1, P40 biotin peptide (MS1891.2) (human); test: ELISA on P40 biotin peptide MS1891.2, in duplicate
binder,measurement,setting,value
B1,binding,[1],binds
same,binding,[2],binds
